# Experimental data reported in patent US20100061969A1, “DIETARY SUPPLEMENT, ANTI-FATIGUE AGENT OR PHYSICAL ENDURANCE ENHANCER, FUNCTIONAL FOOD, OR COSMETIC” (ASAHI KASEI PHARMA CORPORATION, priority 2006, published 2010).
# Tested on: coenzyme Q9
# Experiment: Coenzyme Q9 oxidation ratio in blood after forced oral administration
# Format: in vivo, rat
# Conditions: rats; for Average value of CoQ9 oxidation ratio: oxidized coenzyme Q9 based on total coenzyme Q9
# Protocol: Seven-week-old male Slc:SD rats were preliminarily fed for 7 days, and forced oral administration (repeated oral administration) was performed for 4 rats with phosphatidylinositol at 100 mg/kg/day for 1 week. Then, forced oral administration was performed with phosphatidylinositol at 100 mg/kg/day and oxidized coenzyme Q10 at 100 mg/kg/day at the same time (PI-administered group). 0, 2, 4, and 6 hours after the forced oral administration with both phosphatidylinositol and coenzyme Q10, the whole blood was collected from the postcaval vein using heparinized injection needles and syringes under diethyl ether anesthesia. Collected blood was immediately centrifuged (4° C., 3,000 rpm, 10 minutes) to separate plasma. The separated plasma samples were used for an analysis of coenzyme Q10 by HPLC. As comparative examples, the above-mentioned procedures were performed for the group which was subjected to forced oral administration (repeated oral administration) with soybean lecithin at 500 mg/kg/day (100 mg/kg/day in terms of phosphatidylinositol) instead of phosphatidylinositol for 1 week and then to forced oral administration with both phosphatidylinositol at 100 mg/kg/day and oxidized coenzyme Q10 at 100 mg/kg/day at the same time (soybean lecithin-administered group), and the group which was subjected to forced oral administration with both phosphatidylinositol at 100 mg/kg/day and oxidized coenzyme Q10 at 100 mg/kg/day simultaneously without preliminary administration of phosphatidylinositol (PI non-administration group).
substance,measurement,setting,value
phosphatidylinositol,Average value of CoQ9 oxidation ratio,0 hr,24 nM
same,Average value of CoQ9 oxidation ratio,2 hr,14 nM
same,Average value of CoQ9 oxidation ratio,4 hr,13 nM
same,Average value of CoQ9 oxidation ratio,6 hr,7.4 nM
same,coenzyme Q9 oxidation ratios compared with the PI non-administration group,1 week pre-administration,tendency to be lower
